Values from PubChem BioAssay AID1671195 (Yale University, 2021).
The whole screen tested about 22,000 reagents; shown is a part drawn at random. Of all reagents, about 1,510 (6.9%) got an active call. 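Active includes knockdowns raising or lowering LDL uptake; positive z-scores mean more uptake, negative mean less.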 No sequences are given here.

- Purpose: 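Genes whose knockdown alters LDL uptake in liver cancer cells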 (primary screen)
- System: human Huh7 hepatoma cells
- Reagent: siRNA pool against human genes, 18 nM
- Timing: about 2 to 2.5 days of knockdown, then 8 h LDL uptake
- Conditions: DiI-labelled LDL at 30 µg/ml for 8 h, in lipoprotein-deficient serum medium
- Measured: 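Per-cell DiI-LDL intensity by automated imaging; well means scaled to the plate median and given as a robust z-score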
- Direction: robust z-score: higher = more LDL uptake after knockdown
- Call rule: 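a gene counts as active if at least two replicate z-scores exceed ±2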

LOC388421 (retired record) scored robust z-score, replicate 1 = -0.497; robust z-score, replicate 2 = 0.176; robust z-score, replicate 3 = -0.226; inactive. With knock-down of LOC390466 (retired record) the results were robust z-score, replicate 1 = -0.0541; robust z-score, replicate 2 = 0.066; robust z-score, replicate 3 = -0.502; inactive. S100PBP showed robust z-score, replicate 1 = -0.555; robust z-score, replicate 2 = -0.181; robust z-score, replicate 3 = -0.841; inactive. Depletion of XAF1 resulted in: robust z-score, replicate 1 = -0.452; robust z-score, replicate 2 = 2.53; robust z-score, replicate 3 = 0.479; inactive. BDP1 showed robust z-score, replicate 1 = 0.247; robust z-score, replicate 2 = -2.27; robust z-score, replicate 3 = -0.312; inactive. Depletion of PPP3CA came out at: robust z-score, replicate 1 = 0.275; robust z-score, replicate 2 = 1.78; robust z-score, replicate 3 = -0.807; inactive.

Taken from above:
S100PBP, robust z-score, replicate 1: -0.555
For “outcome”, LOC390466 (retired record) is entered as inactive

Further records:
Knock-down of BPNT2 gave: robust z-score, replicate 1 = 0.027; robust z-score, replicate 2 = -0.321; robust z-score, replicate 3 = 1.17; inactive. Knock-down of CCT3 resulted in: robust z-score, replicate 1 = 0.00493; robust z-score, replicate 2 = 0.0711; robust z-score, replicate 3 = 0.144; inactive. Knock-down of EMC6 resulted in: robust z-score, replicate 1 = 0.994; robust z-score, replicate 2 = 0.421; robust z-score, replicate 3 = 1.37; inactive. After knock-down of PGAM5, the screen gave robust z-score, replicate 1 = -0.414; robust z-score, replicate 2 = -0.53; robust z-score, replicate 3 = -0.693; inactive. For EDEM2, the entry reads robust z-score, replicate 1 = -0.355; robust z-score, replicate 2 = 0.0481; robust z-score, replicate 3 = -1.02; inactive. After knock-down of DCBLD2, the screen gave robust z-score, replicate 1 = -0.178; robust z-score, replicate 2 = 1.21; robust z-score, replicate 3 = 0.878; inactive.

With knock-down of PFDN5, the screen gave robust z-score, replicate 1 = -0.249; robust z-score, replicate 2 = -0.566; robust z-score, replicate 3 = -0.402; inactive. After knock-down of HDAC10, the record shows robust z-score, replicate 1 = -0.346; robust z-score, replicate 2 = 0.0237; robust z-score, replicate 3 = -0.505; inactive. Knock-down of CLCC1 resulted in: robust z-score, replicate 1 = -0.234; robust z-score, replicate 2 = 0.607; robust z-score, replicate 3 = -0.38; inactive. After knock-down of ZBED2, the record shows robust z-score, replicate 1 = 0.0498; robust z-score, replicate 2 = -0.466; robust z-score, replicate 3 = -0.236; inactive.
